Experimental data: the supplement of paper PMC12578635
± gives the standard deviation of the averaged measurements. The list shows a part of the results. Many values rest on one well or one pass, so single values are uncertain.

What follows are molecules tested on RAW 264.7 macrophages infected with S. aureus JE2-lux (assay: host macrophage viability (CellTiter-Fluor) relative to DMSO vehicle; higher = more viable host cells). Conditions: 10 µM; treatment time 4 h; gentamicin 50 µg/ml.
Cc1ccc(/C=C/c2nc(C#N)c(N3CCN(C(=O)COc4ccc(C)cc4)CC3)o2)cc1 gave a host macrophage viability of 149%.
Molecule CCC(=O)N1CCN(c2nc3ccc(C)cc3cc2-c2noc(-c3ccccc3)n2)CC1 has a host macrophage viability of 118%.
With CC(C)c1ccc(NC(=O)c2cc(C(F)(F)F)n(C)n2)cc1 the host macrophage viability was 137%.
Molecule COc1ccc(NC(=O)C2CCN(c3nc4ccccc4s3)CC2)c(OC)c1 has a host macrophage viability of 109%.
Work on COc1cccc(CNC(=O)c2noc3c2CSc2ccccc2-3)c1 yielded a host macrophage viability of 119%.
Molecule CCn1cc(C2=NOC(C(=O)NCc3ccccn3)C2)c(C)n1 (centres undefined) has a host macrophage viability of 105%.
Cc1nn(C)c(C)c1NC(=O)c1ncoc1-c1ccc(F)cc1 gave a host macrophage viability of 134%.
Cc1cccc2sc(NNC(=O)c3ccc(N(C)C)cc3)nc12 was tested, and the host macrophage viability was 116 ± 3.6%.
Molecule O=C1CC(c2ccc(Br)cc2)c2cnn(-c3nc4ccccc4s3)c2N1 (centres undefined) has a host macrophage viability of 106%.
In the case of O=C(Nc1cccc(-c2ccc3nncn3n2)c1)C(c1ccccc1)c1ccccc1, the host macrophage viability is reported as 112%.
In the case of Cc1oc(-c2ccno2)cc1S(=O)(=O)Nc1ccc(Br)cc1F, the host macrophage viability is reported as 112%.
Cc1nnc(NC(=O)CSc2nnc3ccc(-c4ccncc4)nn23)s1 gave a host macrophage viability of 138%.
O=C(CC1CCN(C(=O)c2cc3ccccc3[nH]2)CC1)NC1CC1 gave a host macrophage viability of 97.9%.
With O=C(CSc1nccc2ccccc12)Nc1ccccc1C(F)(F)F the host macrophage viability was 104%.
COc1ccc(C(=O)N(Cc2nc3[nH]c(C)cc(=O)n3n2)c2ccc(C)cc2)cc1OC was tested, and the host macrophage viability was 89.4%.
Work on Cc1nc(N2CCCC2)c2c(C)c(C(=O)Nc3cccc(F)c3)sc2n1 yielded a host macrophage viability of 105%.
COc1ccccc1NC(=O)c1nc(Nc2cccc(C)c2)c2ccccc2n1 gave a host macrophage viability of 89.5%.
For Cc1ccc(Cn2nnc3c(O)nc(Cn4nnc(-c5ccc(Cl)cc5)n4)nc32)cc1, the host macrophage viability was 115%.
In the case of Cc1cc(C)nc(NC(=O)CCCn2nnc3cc(S(=O)(=O)N(C)C)ccc32)n1, the host macrophage viability is reported as 129%.
Molecule C=CCOC(=O)C1=C(C)NC(SCC(=O)OCC)=C(C#N)C1c1cccs1 (centres undefined) has a host macrophage viability of 133%.
CCCc1nc(SCC(=O)c2ccc(Cl)cc2)c2c(=O)n(C)c(=O)n(C)c2n1 was tested, and the host macrophage viability was 118 ± 5.2%.
Cc1ncsc1C(=O)N1CCCC(c2nc3ccccc3c(=O)[nH]2)C1 (centres undefined) showed a host macrophage viability of 112%.
For O=C(CSc1nccc2ccccc12)Nc1c[nH]c2ccccc12, the host macrophage viability was 138%.
Cc1cccc(-c2nc3scc(CCNC(=O)c4ccc5c(c4)OCO5)n3n2)c1 was tested, and the host macrophage viability was 113%.
COc1ccc(-c2cc(C(F)(F)F)c(C#N)c(SCCC(=O)O)n2)cc1 gave a host macrophage viability of 136%.
CC1CCc2nc(Nc3nc4ccc(F)cc4s3)sc2C1 (centres undefined) was tested, and the host macrophage viability was 102 ± 10%.
Molecule CCCCSc1nc2c(c(=O)[nH]1)C(c1ccc(OC)cc1)C1=C(CCCC1=O)N2 (centres undefined) has a host macrophage viability of 115%.
C=CCc1c(C)nc(-c2ccccc2)nc1Nc1ccc(C(=O)O)cc1 gave a host macrophage viability of 123%.
NC(=O)C1Cc2ccccc2N1C(=O)c1ccc(S(=O)(=O)N2CCCC2)cc1 (centres undefined) was tested, and the host macrophage viability was 115%.
CCOC(=O)C(C)NC(=O)Nc1c(-c2cccnc2)[nH]c2ccc(Cl)cc12 (centres undefined) showed a host macrophage viability of 98.8%.
Molecule Cc1nc2ccccc2c2nn(CC(=O)NC3CCCC3)c(=O)n12 has a host macrophage viability of 135%.
O=C(CSCc1nc(O)c2nnn(Cc3ccc(F)cc3)c2n1)Nc1cccc2ccccc12 showed a host macrophage viability of 101%.
Cc1ccc(Cl)cc1N1CCN(C(=O)c2cnc(N3CCCCC3)c3ccccc23)CC1 gave a host macrophage viability of 122%.
O=C(Cn1cnc2c(cnn2-c2ccc(F)cc2)c1=O)Nc1cccc([N+](=O)[O-])c1 showed a host macrophage viability of 88.1 ± 5.3%.
With CCOC(=O)C(=O)NCC(c1ccco1)S(=O)(=O)c1ccccc1 (centres undefined) the host macrophage viability was 116%.
Molecule COC(=O)c1cc(N/N=C2\C=CC(=O)c3ccccc32)cc(C(=O)OC)c1 has a host macrophage viability of 120%.
Cc1cc(N(C)C)nc(N2CCN(C(=O)c3ccc(F)cc3)CC2)n1 was tested, and the host macrophage viability was 115%.
With O=C(Cn1nc(C(F)(F)F)c2cccn2c1=O)NC1CCCC1 the host macrophage viability was 120%.
O=C(NCc1cccnc1)C(=O)Nc1cc2c3c(c1)CCC(=O)N3CCC2 was tested, and the host macrophage viability was 114%.
O=C(CCCN1C(=O)S/C(=C/c2ccccc2)C1=S)Nc1ccc(C(=O)O)cc1 was tested, and the host macrophage viability was 84.4%.
Work on Cc1cc(NC2CCCCC2)n2c(nc3ccccc32)c1C#N yielded a host macrophage viability of 136%.
With Cc1cc(C)c(NC(=O)c2sc3nc4c(cc3c2N)C(=O)CC(C)(C)C4)c(C)c1 the host macrophage viability was 123%.
Molecule O=C(NCc1ccccc1)c1nn(-c2ccccc2)c2nc[nH]c(=O)c12 has a host macrophage viability of 92.6%.
For O=C1C=C/C(=N/Nc2ccc3c(c2)OCO3)c2cccnc21, the host macrophage viability was 90.4%.
Work on O=CC1CSc2[nH]c(=O)sc2C1c1ccc(OCc2ccccc2)cc1 (centres undefined) yielded a host macrophage viability of 114%.
For CCOc1cccc2c1Oc1nc(-c3ccc(OC)c(OC)c3)[nH]c(=O)c1C2, the host macrophage viability was 131%.
With CCOc1ccc2nc(-n3nc(C)c4c3NC(=O)CC4c3cnn(CC)c3)sc2c1 (centres undefined) the host macrophage viability was 119%.
Cc1sc2nc(SCC(=O)Nc3c[nH]c(=O)[nH]c3=O)[nH]c(=O)c2c1C was tested, and the host macrophage viability was 123%.
With O=C(CCN1C(=O)/C(=C/c2ccc(Cl)cc2Cl)SC1=S)Nc1cccnc1 the host macrophage viability was 95.8%.
CCOC(=O)c1cc(-c2ccccn2)c(N2CCOCC2)s1 was tested, and the host macrophage viability was 111%.
In the case of Cn1c(SCC(=O)NCC2CCCO2)ncc(C(=O)Nc2ccccc2)c1=O (centres undefined), the host macrophage viability is reported as 113%.
Molecule Cc1c(NC(=O)c2ncoc2-c2ccc(F)cc2)c(=O)n(-c2ccccc2)n1C has a host macrophage viability of 135%.
Work on Cc1ccc(-c2ocnc2C(=O)N2CCN(c3ncccn3)CC2)cc1 yielded a host macrophage viability of 113%.
Work on O=C(CCCS(=O)(=O)c1ccccc1)Nc1nc2c(Cl)ccc(Cl)c2s1 yielded a host macrophage viability of 118%.
Work on Cc1ccc(NS(=O)(=O)c2ccc3c(c2)C(=O)c2ccccc2C3=O)c(C)c1 yielded a host macrophage viability of 114%.
Work on O=C(Nc1ccc(NC(=O)c2cccc3nccnc23)cc1)c1ccccn1 yielded a host macrophage viability of 118%.
Molecule CC(C)(C)C1CCc2c(sc3nc(CN4CCN(C(=O)c5ccco5)CC4)[nH]c(=O)c23)C1 (centres undefined) has a host macrophage viability of 121%.
For Cc1ccc(-c2noc3c(=O)n(CCC(=O)Nc4nc5ccc(C)cc5s4)cnc23)cc1, the host macrophage viability was 77.6%.
Work on Cc1ccccc1C(NC(=O)c1[nH]c2ccccc2c1C)c1ccncc1 (centres undefined) yielded a host macrophage viability of 108%.
Cc1cc2c(o1)CCc1sc(N(C)C(=O)Cc3ccccc3F)nc1-2 showed a host macrophage viability of 104%.
With Cc1ccccc1C(=O)n1nc(-c2ccccc2)nc1N the host macrophage viability was 92.6%.
Molecule Cc1nc(-c2cccc(NS(=O)(=O)c3ccc4ccccc4c3)c2)cs1 has a host macrophage viability of 119 ± 11%.
Work on Cc1cccc(C(=O)Nc2cnc(N3CCN(c4ncnc5ccccc45)CC3)c(C(=O)O)c2)c1 yielded a host macrophage viability of 88.4%.
Cc1ccc(-c2csc(NC(=O)CSc3nncc(=O)[nH]3)n2)cc1 gave a host macrophage viability of 108%.
Cc1n[nH]c(C)c1S(=O)(=O)NCCOc1ccc(-c2cccs2)nn1 gave a host macrophage viability of 111%.
With Cc1c(C)n2c(SCC(=O)NCC3CCCO3)nnc2[nH]c1=O (centres undefined) the host macrophage viability was 110%.
Molecule CN(CCCC(=O)Nc1nccs1)S(=O)(=O)c1ccc(Cl)cc1 has a host macrophage viability of 113%.
COc1ccc(-c2n[nH]c3nc(-c4ccc(F)cc4)cc(C(=O)NC(C)c4ccccc4)c23)cc1 (centres undefined) was tested, and the host macrophage viability was 129%.
Molecule O=C(Nc1c2c(nn1-c1ccc(Cl)cc1)CS(=O)(=O)C2)c1ccc(Cl)cc1Cl has a host macrophage viability of 117%.
With COc1ccc2c(c1)cc(C)c1nn(CC(=O)Nc3cccc(C(C)=O)c3)c(=O)n12 the host macrophage viability was 111%.
O=C(Cn1cnc2ccccc21)Nc1ccccc1 showed a host macrophage viability of 105.5 ± 0.12%.
CCCCNC(=O)CSc1nc(-c2ccc(C(C)C)cc2)no1 was tested, and the host macrophage viability was 101%.
In the case of COc1cccc(NC(=O)Cn2c(=O)cc(C)c3c(C)nn(-c4ccccc4)c32)c1, the host macrophage viability is reported as 108%.
CC(=O)NC(=O)c1cc2cc(Br)ccc2o/c1=N\c1ccc(F)cc1 gave a host macrophage viability of 104%.
Molecule Cc1ccnc(NS(=O)(=O)c2ccc(NC(=O)c3cc(-c4cccs4)on3)cc2)n1 has a host macrophage viability of 124%.
In the case of COc1ccc(C(=O)NN2C(=O)c3ccccc3C2=O)cc1, the host macrophage viability is reported as 114%.
COc1cccc(NC(=O)CSc2nc(-c3ccccc3)no2)c1 was tested, and the host macrophage viability was 121%.
COc1cc2c(cc1OC)C(c1cc3cc(C)ccc3[nH]c1=O)N(C(=O)Nc1ccccc1)CC2 (centres undefined) showed a host macrophage viability of 106%.
Molecule COc1ccc(C2C3=C(CCCC3=O)Nc3[nH]c(=O)[nH]c(=O)c32)cc1 (centres undefined) has a host macrophage viability of 128%.
With CCOc1ccc(-n2c(C)c(C)n3c4c(=O)[nH]c(=O)n(C)c4nc23)cc1 the host macrophage viability was 118%.
O=C(Nc1ccccc1Br)c1csc2c1CCCC2 gave a host macrophage viability of 102 ± 8.9%.
Cc1ccc(-n2nc3ccc(NC(=O)C(C)NS(=O)(=O)c4ccc(C)cc4)cc3n2)cc1 (centres undefined) showed a host macrophage viability of 109%.
COC(=O)c1ccccc1NC(=O)Nc1c(-c2ccncc2)[nH]c2c(Cl)cccc12 was tested, and the host macrophage viability was 87.1%.
NC(=O)c1cc2ccccc2o/c1=N\c1ccc(Cl)cc1Cl was tested, and the host macrophage viability was 94.8%.
In the case of CCS(=O)(=O)c1cccc(C(=O)Nc2nc3c(C)ccc(Cl)c3s2)c1, the host macrophage viability is reported as 145%.
CN1C(=O)CC(Sc2ncccc2C(=O)O)C1=O (centres undefined) showed a host macrophage viability of 115%.
O=C(Cn1cnc2c(nnn2-c2cccc(F)c2)c1=O)N1CCN(c2ccccc2)CC1 gave a host macrophage viability of 117%.
In the case of Cc1ccc(SCCCC(=O)Nc2cccc3c2C(=O)NC3=O)cc1, the host macrophage viability is reported as 95.9%.
Work on COc1ccc(-c2csc(NC(=O)CSc3nncn3N)n2)cc1 yielded a host macrophage viability of 114%.
Molecule O=C(NC1CCCCC1)C(c1ccc(O)cc1)N(C(=O)c1cnccn1)c1cccc(F)c1 (centres undefined) has a host macrophage viability of 103%.
Work on CCc1ccc2c(c1)cc(CN(C(=S)Nc1cccc(C)c1C)C1CC1)c1nnnn12 yielded a host macrophage viability of 114%.
COc1cccc(-c2cc(C(F)(F)F)n3nc(C(=O)N4CCCC4c4cc(C)on4)cc3n2)c1 (centres undefined) showed a host macrophage viability of 112%.
In the case of COc1ccccc1NC(=O)CSc1nnc(-n2nc(C)cc2C)c2ccccc12, the host macrophage viability is reported as 106%.
CCN1C(=O)c2cccc3c(NC(=O)c4ccc(Cl)s4)ccc1c23 gave a host macrophage viability of 146 ± 14%.
In the case of Cc1nccn1CC(=O)N/N=C/c1ccc(O)c(O)c1, the host macrophage viability is reported as 105%.
In the case of COc1ccc2[nH]cc(CCNC(=O)CN3C(=O)S/C(=C\c4ccc(F)cc4)C3=O)c2c1, the host macrophage viability is reported as 115%.
CC(=O)c1cccc(NC(=O)c2cc3cccnc3n(C)c2=O)c1 showed a host macrophage viability of 114%.
Work on Cc1ccc(C)c(NC(=O)c2ccc(S(=O)(=O)N3CCCCC3C)cc2)c1 (centres undefined) yielded a host macrophage viability of 115%.
In the case of CCn1c(CN2CCNCC2)nc2cc(C(=O)N(C)C)ccc21, the host macrophage viability is reported as 129%.
With CCOC(=O)c1ccc2cc3c(cc2c1O)OCCO3 the host macrophage viability was 113%.
In the case of Cc1ncc(C(=O)NC(c2ccccc2)c2cccnc2)c(C)n1 (centres undefined), the host macrophage viability is reported as 116%.
COc1ccc(NC(=O)c2sc(C)nc2-c2ccccc2)cc1 showed a host macrophage viability of 107%.
COc1ccc(Cl)cc1Nc1nnc(C)c(=O)[nH]1 showed a host macrophage viability of 97.9%.
CC(=O)c1cccc(Nc2cc(C(F)(F)F)nc3ncnn23)c1 showed a host macrophage viability of 126%.
